In this assay the target is EGFR, mouse, in cerebral cortex lysate (mouse (endogenous in C57BL/6 cerebral cortex)) (UniProt Q01279). Briefly: co-IP; C57BL/6 mouse cerebral cortex lysates (1 mg/mL protein), ages 3 to 12 months; 2 ug anti-EGFR or anti-DYRK3 with protein G plus/protein A-agarose, overnight at 4 C, then immunoblot.

These are yes or no findings as the source states them, for the method shown. In cells and extracts the contact can be indirect. Some entries that bind do so weakly or less than the wild type.

B1: DYRK3, mouse, in cerebral cortex lysate (enzyme, UniProt Q922Y0 1-586)
chain: MGGAARDRGRKDAALPGAGLPPQQRRLGDGVYDTFMMIDETKGPPYSDTFSNPSEAPVSRRLNITTEPLTRGHTQHFVNGSEMKVEQLFQEFGNRRSNTLQSDGISNSEKSSPASQGKSSESLSAVKCNLSSRPSKVLPLTPEQALKQYKHHLTAYEKLEIVSYPEIYFVGPNAKKRQGVIGGPNNGGYDDADGAYIHVPRDHLAYRYEVLKIIGKGSFGQVARVYDHKLRQYVALKMVRNEKRFHRQAAEEIRILEHLKKQDKTGSMNVIHMLESFTFRNHVCMAFELLSIDLYELIKKNKFQGFSVQLVRKFAQSILQSLDALHKNKIIHCDLKPENILLKHHGRSATKVIDFGSSCFEYQKLYTYIQSRFYRAPEIILGCRYSTPIDIWSFGCILAELLTGQPLFPGEDEGDQLACMIELLGMPPQKLLEQSKRAKYFINSKGLPRYCSVSTQTDGRVVLLGGRSRRGKKRGPPGSKDWATALKGCGDYLFIEFLKRCLQWDPSARLTPAQALRHPWISKSTPKPLTMDKVPGKRVVNPTNAFQGLGSKLPPVVGIASKLKANLMSETSGSIPLCSVLPKLIS
On to B1, for which the binding result was “binds”.

Values taken from paper PMC11941692.
